# Primary screen of a compound library

Sequences of proteins named here, by UniProt entry; tags and fusion partners are left off.
UniProt E9BF75, entry or part of it: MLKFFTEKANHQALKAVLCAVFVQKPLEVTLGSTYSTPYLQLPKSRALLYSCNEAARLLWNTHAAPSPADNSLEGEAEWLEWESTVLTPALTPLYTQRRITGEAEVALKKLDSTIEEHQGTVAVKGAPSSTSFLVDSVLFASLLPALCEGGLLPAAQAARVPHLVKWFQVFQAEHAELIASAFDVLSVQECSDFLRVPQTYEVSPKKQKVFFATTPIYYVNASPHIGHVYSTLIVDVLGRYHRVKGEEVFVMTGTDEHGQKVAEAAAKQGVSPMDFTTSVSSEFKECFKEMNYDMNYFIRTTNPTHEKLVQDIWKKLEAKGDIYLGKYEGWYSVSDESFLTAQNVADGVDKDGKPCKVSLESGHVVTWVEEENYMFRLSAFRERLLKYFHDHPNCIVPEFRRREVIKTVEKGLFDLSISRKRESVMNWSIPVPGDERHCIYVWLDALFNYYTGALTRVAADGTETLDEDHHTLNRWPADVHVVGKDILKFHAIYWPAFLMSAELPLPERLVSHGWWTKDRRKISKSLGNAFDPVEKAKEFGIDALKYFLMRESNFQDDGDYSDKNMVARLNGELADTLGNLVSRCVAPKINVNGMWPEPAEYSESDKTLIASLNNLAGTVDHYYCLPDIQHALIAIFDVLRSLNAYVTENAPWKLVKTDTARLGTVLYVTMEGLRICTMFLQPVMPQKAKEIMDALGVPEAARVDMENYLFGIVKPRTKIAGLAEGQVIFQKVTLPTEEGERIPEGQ

Data taken from ChEMBL document CHEMBL3988442, “University of Dundee, Small-Polar-MMV Screening Library” (2021).

LdMetRS: 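Primary screen of methionyl-tRNA synthetase; the read-out is not stated. Target: Methionyl-tRNA synthetase (putative), Leishmania donovani (UniProt E9BF75). The test concentration is not given. The values are filed as inhibition. About 68,000 compounds were tested under these conditions; 0.035% (about 24) showed 50% or more at least once.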
Mtb heat-shock: 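Assay on Mycobacterium tuberculosis, filed only as a heat shock assay from Cornell; the read-out is not stated. The concentration is filed as 10 mM, unlikely as a test dose, so the dose is not known. Direction is inferred from retests: higher values go with stronger inhibition. Size under these conditions: about 69,000 compounds, about 930 of them at 50% or above in at least one test.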

Results are percentages, as filed. The controls that fix the scale are not given in the record; negative values are as filed. The compounds are a random part of those screened. A dash means the value is not listed here; it may have been measured.

- CCc1cnc(CN(C)C2CCN(CC3CCOCC3)C2)o1 (stereo not drawn) | LdMetRS: -0.7444%; Mtb heat-shock: 5.116%
- CCOc1ccccc1C(CC(=O)O)NC(C)=O (stereo not drawn) | LdMetRS: 9.946%; Mtb heat-shock: 2.752%
- CCN1CC2(CCCCN2C(=O)c2ccsc2)CC1=O (stereo not drawn) | LdMetRS: 4.808%; Mtb heat-shock: 8.245%
- Cc1nc(CN(C)C2CCN(Cc3ccc(Cl)s3)C2)no1 (stereo not drawn) | LdMetRS: 18.75%; Mtb heat-shock: 1.929%
- O=C(CCc1ccccn1)NCC(O)c1ccc(Cl)cc1Cl (stereo not drawn) | LdMetRS: 18.75%; Mtb heat-shock: -36.77%
- CC(C)N1CC2(CCCN(c3ccnc4ccccc34)C2)CCC1=O (stereo not drawn) | LdMetRS: 21.77%; Mtb heat-shock: -37.91%
- Cc1ccc(N2CCCC(NC(=O)C(C)(C)C#N)C2=O)cc1 (stereo not drawn) | LdMetRS: 13.71%; Mtb heat-shock: 2.123%
- c1ccc(C[C@H]2CN(Cc3nccs3)CC[C@H]2OCC2CC2)cc1 | LdMetRS: 21.95%; Mtb heat-shock: -151.4%
- CC(C)n1cnc(-c2nc(C(=O)N3CCN(C)CC3)c3ccccn23)c1 | LdMetRS: 14.07%; Mtb heat-shock: -26.69%
- Cc1ccnc(OC[C@]23COC[C@H]2CN(C(=O)C2=CCCCC2)C3)n1 | LdMetRS: 11.68%
- Cn1nc(Br)c2c(NCCNc3ncccn3)ncnc21 | LdMetRS: 14.16%; Mtb heat-shock: -4.479%
- Cn1nccc1-c1ncc2c(c1C(=O)O)CCN(Cc1cccnc1)C2 | LdMetRS: 10.1%
- CSc1ccc(C(=O)N2C[C@H]3CC[C@@H]2CN(Cc2cccnc2)C3)cc1 | LdMetRS: 2.133%
- O=C(O)C(F)(F)F.O=C(O)C(F)(F)F.c1nc(CN2CCC3(CC2)COCCN3CC2CC2)c[nH]1 | Mtb heat-shock: -26.5%
- COCCC1COC2(CCN(C(=O)c3cccn3C)CC2)C1 (stereo not drawn) | LdMetRS: 7.96%; Mtb heat-shock: -8.472%
- COCCNC(=O)c1sc2ccccc2c1C1CCC(CN)CC1.Cl (stereo not drawn) | Mtb heat-shock: 16.29%
- CC(C)n1ccnc1C1CCCN(Cc2ccc(F)c(F)c2)C1 (stereo not drawn) | LdMetRS: 5.722%; Mtb heat-shock: -25.58%
- COc1ccc(CN2CCC3(CCN(c4cccnc4)C3=O)C2)cc1.O=C(O)C(F)(F)F.O=C(O)C(F)(F)F (stereo not drawn) | Mtb heat-shock: -17.91%
- O=C(C1CCCC1)N1CCN(Cc2ccncc2)[C@@H]2CS(=O)(=O)C[C@@H]21 | LdMetRS: 6.452%
- CCCOc1ccc(C2SCC(=O)Nc3c2c(=O)[nH]n3C(C)C)cc1 (stereo not drawn) | LdMetRS: 13.14%; Mtb heat-shock: 11.3%
- COc1cccc(CN(Cc2ccco2)Cc2[nH]cnc2C)c1.O=C(O)CC(O)(CC(=O)O)C(=O)O | Mtb heat-shock: -11.96%
- CCCc1cc(NC(=O)c2cccc(N3CCCNC3=O)c2)n[nH]1 | LdMetRS: 21.31%; Mtb heat-shock: 4.331%
- O=C(O)C(F)(F)F.[H][C@@]12CCN(c3cccnc3)C[C@]1([H])CN(C(=O)c1ccc(C)nc1)C2 | Mtb heat-shock: -0.72%
- CNc1ccnc(NCCSc2nccn2C)n1 | LdMetRS: 14.99%; Mtb heat-shock: -9.365%
- COc1ccc(CCn2ccnc2-c2cc3n(n2)CCCNC3)cc1 | LdMetRS: 12.42%; Mtb heat-shock: -8.488%
- O=C(Cc1ccc(F)cc1)N1CCN(CC(O)C2CC2)CC1 (stereo not drawn) | LdMetRS: 15.27%

The last 3 entries again:

compound,LdMetRS,Mtb heat-shock
CNc1ccnc(NCCSc2nccn2C)n1,14.99%,-9.365%
COc1ccc(CCn2ccnc2-c2cc3n(n2)CCCNC3)cc1,12.42%,-8.488%
O=C(Cc1ccc(F)cc1)N1CCN(CC(O)C2CC2)CC1 (stereo not drawn),15.27%,-